Results are given in words; binding and its absence hold for the method and conditions named. Binding calls can cover weak binding; strength is not graded here. Sequences can lack the tags named with a protein. Each block holds one binder with its values, some of them ahead of it.
Molecular target: GST-VAMP3 (VAMP3 residues 1-81) (human)
Experiment: pull-down; GST-tagged bait (SNARE or preformed, purified 1:1:1 SNARE complex, 2 nmoles) on glutathione beads, His6Myc-tagged prey; 20 mM HEPES pH 7.4, 150 mM NaCl, 4 mM DTT, 4 mM β-mercaptoethanol, 0.1% NP-40, 0.05% BSA; 4°C overnight; Coomassie gel and anti-myc western blot; both purified

binding: no binding
B1: His6MycAP180_(ANTH) (AP180 ANTH domain, residues 1-304) (domain or fragment, UniProt Q61548 1-304)
chain: MSGQTLTDRIAAAQYSVTGSAVARAVCKATTHEVMGPKKKHLDYLIQATNETNVNIPQMADTLFERATNSSWVVVFKALVTTHHLMVHGNERFIQYLASRNTLFNLSNFLDKSGSHGYDMSTFIRRYSRYLNEKAFSYRQMAFDFARVKKGADGVMRTMVPEKLLKSMPILQGQIDALLEFDVHPNELTNGVINAAFMLLFKDLIKLFACYNDGVINLLEKFFEMKKGQCKDALEIYKRFLTRMTRVSEFLKVAEQVGIDKGDIPDLTQAPSSLMETLEQHLNTLEGKKPGNNEGSGAPSPLSK

binding: binds
B2: His6MycCALM_(ANTH) (CALM ANTH domain, residues 1-289) (domain or fragment, UniProt O55012 1-289)
chain: MSGQSLTDRITAAQHSVTGSAVSKTVCKATTHEIMGPKKKHLDYLIQCTNEMNVNIPQLADSLFERTTNSSWVVVFKSLITTHHLMVYGNERFIQYLASRNTLFNLSNFLDKSGLQGYDMSTFIRRYSRYLNEKAVSYRQVAFDFTKVKRGADGVMRTMNTEKLLKTVPIIQNQMDALLDFNVNSNELTNGVINAAFMLLFKDAIRLFAAYNEGIINLLEKYFDMKKNQCKEGLDIYKKFLTRMTRISEFLKVAEQVGIDRGDIPDLSQAPSSLLDALEQHLASLEGKK
